Measured values reported in publication doi:10.1101/534545.
No constants are given. Whether binding was seen depends on the method and setting. In cells and extracts the contact can be indirect. Some binding calls cover weakened binding; strength is not graded here. Where a sequence is shown, tags or fusion partners need not be part of it.

The chains behind the UniProt entries cited, without tags or fusion partners. Where a name states a change or a piece, a line headed by the entry shows the natural chain unless it says otherwise.
UniProt Q38919: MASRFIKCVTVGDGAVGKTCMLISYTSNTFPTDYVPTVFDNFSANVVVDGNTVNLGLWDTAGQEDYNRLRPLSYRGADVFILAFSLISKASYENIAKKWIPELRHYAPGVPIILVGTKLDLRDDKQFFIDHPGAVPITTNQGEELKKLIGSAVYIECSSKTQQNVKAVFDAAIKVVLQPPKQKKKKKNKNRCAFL

These substances were tested against T1, GEF3-cYFP (Arabidopsis thaliana) (UniProt A4IJ27) (assay: split reporter).
T1 sequence: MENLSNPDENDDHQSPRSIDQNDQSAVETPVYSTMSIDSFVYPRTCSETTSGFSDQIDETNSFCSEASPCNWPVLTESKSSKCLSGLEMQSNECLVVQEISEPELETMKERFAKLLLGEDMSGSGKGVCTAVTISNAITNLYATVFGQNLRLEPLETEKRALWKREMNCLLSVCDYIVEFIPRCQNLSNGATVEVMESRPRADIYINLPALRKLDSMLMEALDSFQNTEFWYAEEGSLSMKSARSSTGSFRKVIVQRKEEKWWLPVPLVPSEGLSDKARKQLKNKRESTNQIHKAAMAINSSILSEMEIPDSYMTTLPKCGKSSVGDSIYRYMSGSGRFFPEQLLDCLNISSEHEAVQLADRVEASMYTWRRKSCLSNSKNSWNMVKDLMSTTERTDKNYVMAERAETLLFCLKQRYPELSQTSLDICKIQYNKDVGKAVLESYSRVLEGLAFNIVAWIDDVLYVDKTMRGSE

Substance | binding
nYFP-CA-ROP2 (G14V) (from UniProt Q38919 1-195) | binds
nYFP-rop2ΔN (Δ1-79) (from UniProt Q38919 80-195) (domain or fragment) | no binding

Results, then the substance that gave them:

binding | Substance
binds | nYFP-DN-ROP2 (D120A) (from UniProt Q38919 1-195)
binds | nYFP-ROP2 (wild-type) (from UniProt Q38919 1-195)

Each substance was assayed against T2, GEF3 bait/Cub fusion (Arabidopsis thaliana) (UniProt A4IJ27) (assay: mating-based split-ubiquitin assay in yeast).
T2 sequence: T1 sequence

Substance | binding
CA-ROP2 (G14V) prey/Nub fusion (from UniProt Q38919 1-195) | binds
DN-ROP2 (D120A) prey/Nub fusion (from UniProt Q38919 1-195) | binds
ROP2 (wild-type) prey/Nub fusion (from UniProt Q38919 1-195) | binds
rop2ΔN (Δ1-79) prey/Nub fusion (from UniProt Q38919 80-195) (domain or fragment) | no binding
